# Earlier results as cited in US9382307B2, “Methods and composition for measuring the amount of vitamin D derivatives” (Opko IP Holdings, Inc., priority 2009, dated 2016).
# Some entries share one result that the patent states for a list of compounds.
# Target: T1, VDR (Homo sapiens, UniProt P11473)
# T1 sequence (P11473 1-427): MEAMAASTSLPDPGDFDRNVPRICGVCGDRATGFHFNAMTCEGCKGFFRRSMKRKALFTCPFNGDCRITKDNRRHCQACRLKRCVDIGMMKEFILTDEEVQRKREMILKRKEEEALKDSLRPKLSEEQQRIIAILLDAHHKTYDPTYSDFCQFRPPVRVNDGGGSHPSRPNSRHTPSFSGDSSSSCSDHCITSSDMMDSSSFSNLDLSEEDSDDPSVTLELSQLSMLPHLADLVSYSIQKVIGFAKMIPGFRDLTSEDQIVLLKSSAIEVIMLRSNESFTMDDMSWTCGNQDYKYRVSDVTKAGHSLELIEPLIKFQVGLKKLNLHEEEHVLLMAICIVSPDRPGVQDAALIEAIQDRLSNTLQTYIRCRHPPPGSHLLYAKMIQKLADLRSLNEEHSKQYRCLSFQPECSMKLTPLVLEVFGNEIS
# Settings: estimated; relative to Vitamin D hormones
compound,measurement,value
C=C1CC[C@H](O)C/C1=C/C=C1\CCC[C@]2(C)[C@@H]([C@H](C)CCCC(C)C)CC[C@@H]12 [Cholecalciferol],"affinity for the VDR, fold lower than those of the Vitamin D hormones",at least 100 fold
